Laboratory results reported in article PMC12626831.
These are yes or no findings as the source states them, for the method shown. Binding seen in cells or lysates may run through a third protein. Some binding calls cover weakened binding; strength is not graded here.

The chains behind the UniProt entries cited, without tags or fusion partners.
UniProt Q8BPU7: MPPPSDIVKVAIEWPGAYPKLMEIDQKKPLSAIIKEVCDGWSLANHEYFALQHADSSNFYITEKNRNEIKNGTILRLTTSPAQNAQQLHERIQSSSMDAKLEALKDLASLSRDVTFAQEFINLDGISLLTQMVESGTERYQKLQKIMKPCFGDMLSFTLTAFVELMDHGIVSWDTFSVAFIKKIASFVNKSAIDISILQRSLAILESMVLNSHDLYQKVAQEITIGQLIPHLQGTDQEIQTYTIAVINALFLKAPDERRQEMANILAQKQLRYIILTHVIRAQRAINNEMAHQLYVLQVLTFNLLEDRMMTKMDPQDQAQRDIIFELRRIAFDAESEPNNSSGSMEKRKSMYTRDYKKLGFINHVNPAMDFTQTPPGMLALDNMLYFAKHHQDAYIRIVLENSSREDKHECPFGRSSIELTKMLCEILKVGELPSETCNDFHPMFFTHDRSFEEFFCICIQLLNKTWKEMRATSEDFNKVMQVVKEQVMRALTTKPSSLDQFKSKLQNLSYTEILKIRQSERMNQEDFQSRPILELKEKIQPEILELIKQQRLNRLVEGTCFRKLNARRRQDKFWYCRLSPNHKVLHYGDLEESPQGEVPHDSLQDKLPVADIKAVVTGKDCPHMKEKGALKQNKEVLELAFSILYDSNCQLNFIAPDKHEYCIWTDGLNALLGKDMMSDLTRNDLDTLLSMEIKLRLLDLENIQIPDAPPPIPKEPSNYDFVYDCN
UniProt Q8C3J5: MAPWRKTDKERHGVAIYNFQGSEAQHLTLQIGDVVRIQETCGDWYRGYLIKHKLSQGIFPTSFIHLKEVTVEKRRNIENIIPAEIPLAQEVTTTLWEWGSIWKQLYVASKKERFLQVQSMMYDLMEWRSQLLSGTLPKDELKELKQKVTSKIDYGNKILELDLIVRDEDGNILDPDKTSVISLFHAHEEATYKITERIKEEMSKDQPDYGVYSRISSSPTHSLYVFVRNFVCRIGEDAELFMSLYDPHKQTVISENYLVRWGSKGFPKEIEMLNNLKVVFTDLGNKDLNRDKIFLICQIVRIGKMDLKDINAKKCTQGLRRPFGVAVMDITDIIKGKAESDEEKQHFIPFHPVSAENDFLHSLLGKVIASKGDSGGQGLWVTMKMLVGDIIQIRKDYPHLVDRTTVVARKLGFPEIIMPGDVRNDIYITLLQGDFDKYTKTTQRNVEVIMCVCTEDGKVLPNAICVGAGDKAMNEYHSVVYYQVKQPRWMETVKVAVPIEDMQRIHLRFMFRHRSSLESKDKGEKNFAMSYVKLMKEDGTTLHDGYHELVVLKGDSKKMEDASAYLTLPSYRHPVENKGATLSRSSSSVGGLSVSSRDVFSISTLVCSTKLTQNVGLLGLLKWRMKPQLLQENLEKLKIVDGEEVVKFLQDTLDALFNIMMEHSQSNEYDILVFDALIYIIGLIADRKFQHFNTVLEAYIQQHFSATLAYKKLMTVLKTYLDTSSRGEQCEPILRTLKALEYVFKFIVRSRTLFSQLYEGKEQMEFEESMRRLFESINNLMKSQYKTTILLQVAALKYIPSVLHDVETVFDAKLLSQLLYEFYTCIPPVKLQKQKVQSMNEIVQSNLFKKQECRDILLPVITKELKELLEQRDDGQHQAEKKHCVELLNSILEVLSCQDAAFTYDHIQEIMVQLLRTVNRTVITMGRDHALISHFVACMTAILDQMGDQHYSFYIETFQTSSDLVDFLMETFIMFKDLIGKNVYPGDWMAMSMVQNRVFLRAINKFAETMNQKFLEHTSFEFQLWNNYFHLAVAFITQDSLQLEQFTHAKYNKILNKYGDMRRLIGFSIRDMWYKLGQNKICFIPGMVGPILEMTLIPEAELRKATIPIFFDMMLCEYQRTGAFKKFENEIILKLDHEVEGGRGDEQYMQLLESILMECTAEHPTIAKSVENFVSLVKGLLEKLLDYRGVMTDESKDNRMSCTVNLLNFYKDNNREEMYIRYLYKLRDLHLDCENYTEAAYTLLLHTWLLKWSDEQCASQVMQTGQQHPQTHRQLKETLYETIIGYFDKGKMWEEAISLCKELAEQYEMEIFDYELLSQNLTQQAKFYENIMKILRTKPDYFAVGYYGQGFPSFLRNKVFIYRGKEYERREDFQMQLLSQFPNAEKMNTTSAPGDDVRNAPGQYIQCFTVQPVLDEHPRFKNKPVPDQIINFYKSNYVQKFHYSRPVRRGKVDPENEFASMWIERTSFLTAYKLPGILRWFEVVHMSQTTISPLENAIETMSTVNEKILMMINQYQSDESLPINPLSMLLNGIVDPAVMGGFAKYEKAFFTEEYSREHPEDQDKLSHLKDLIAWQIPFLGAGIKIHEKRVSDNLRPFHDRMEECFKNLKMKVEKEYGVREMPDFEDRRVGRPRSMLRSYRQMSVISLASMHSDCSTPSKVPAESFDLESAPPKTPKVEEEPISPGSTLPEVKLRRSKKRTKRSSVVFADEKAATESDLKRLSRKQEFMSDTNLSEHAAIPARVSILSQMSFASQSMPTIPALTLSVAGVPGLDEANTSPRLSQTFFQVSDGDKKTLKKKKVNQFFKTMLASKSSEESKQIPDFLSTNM

How the values were obtained:
[1] = target: T1, CD11c (integrin αX) (mouse (endogenous in bone marrow neutrophils)) (UniProt Q9QXH4); assay: co-IP; lysates (RIPA) of mouse WT mature neutrophils with or without PMA stimulation; precipitated with anti-mouse CD11c antibodies (97585, N418) on Dynabeads Protein A, 1 h at room temperature; blot
T1 sequence: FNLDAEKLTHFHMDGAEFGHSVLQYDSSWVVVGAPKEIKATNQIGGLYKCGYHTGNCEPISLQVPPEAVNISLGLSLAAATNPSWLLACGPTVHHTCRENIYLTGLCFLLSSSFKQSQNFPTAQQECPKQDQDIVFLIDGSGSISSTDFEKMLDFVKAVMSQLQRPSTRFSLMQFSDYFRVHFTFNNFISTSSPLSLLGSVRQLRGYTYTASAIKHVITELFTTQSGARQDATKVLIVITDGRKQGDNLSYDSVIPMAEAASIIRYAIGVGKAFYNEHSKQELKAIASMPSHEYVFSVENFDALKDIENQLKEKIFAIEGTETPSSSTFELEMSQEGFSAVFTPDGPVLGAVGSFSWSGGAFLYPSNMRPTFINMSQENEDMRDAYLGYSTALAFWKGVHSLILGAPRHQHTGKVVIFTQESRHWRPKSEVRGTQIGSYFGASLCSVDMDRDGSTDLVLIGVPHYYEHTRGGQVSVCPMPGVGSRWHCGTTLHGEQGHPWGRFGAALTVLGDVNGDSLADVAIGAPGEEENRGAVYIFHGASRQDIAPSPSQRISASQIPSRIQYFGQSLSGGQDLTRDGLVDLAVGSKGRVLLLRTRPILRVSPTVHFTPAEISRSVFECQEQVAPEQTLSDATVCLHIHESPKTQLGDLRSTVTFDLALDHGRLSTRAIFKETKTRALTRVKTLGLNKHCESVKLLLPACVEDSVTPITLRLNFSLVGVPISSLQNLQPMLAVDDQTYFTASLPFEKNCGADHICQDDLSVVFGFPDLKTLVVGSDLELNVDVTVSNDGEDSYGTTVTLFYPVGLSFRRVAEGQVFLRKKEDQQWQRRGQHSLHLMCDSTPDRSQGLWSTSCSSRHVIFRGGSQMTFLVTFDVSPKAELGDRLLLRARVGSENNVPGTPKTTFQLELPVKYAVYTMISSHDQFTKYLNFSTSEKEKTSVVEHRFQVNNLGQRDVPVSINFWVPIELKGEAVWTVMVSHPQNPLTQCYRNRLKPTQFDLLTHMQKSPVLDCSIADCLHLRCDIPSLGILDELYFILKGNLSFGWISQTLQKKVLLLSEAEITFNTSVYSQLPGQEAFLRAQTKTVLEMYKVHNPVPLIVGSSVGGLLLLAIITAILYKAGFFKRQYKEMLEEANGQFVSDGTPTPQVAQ

[2] = target: ELMO1 (Engulfment and Cell Motility 1) (mouse (endogenous in bone marrow neutrophils)) (UniProt Q8BPU7); assay: co-IP; lysates (RIPA) of mouse WT and CD11c KO mature neutrophils stimulated with PMA; precipitated with anti-ELMO1 antibody on Dynabeads Protein A; probed with anti-DOCK2 antibody

ELMO1 (Engulfment and Cell Motility 1) (from UniProt Q8BPU7 1-727)
binding [1]: binds

Dedicator of Cytokinesis 2 (DOCK2) (from UniProt Q8C3J5 1-1828)
binding [1]: binds | binding [2]: binds
